From the supplement of paper PMC8256030
Where a name gives a salt, the structure may show the parent alone. The list shows a part of the results. Single values are uncertain here, since repeats match poorly.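 HEK293T cells were given each compound shortly before transfection with a reporter in which red mCherry is followed by the SARS-CoV-2 frameshift element and then GFP in the −1 frame, so GFP appears only after frameshifting.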

What follows are molecules tested on SARS-CoV-2 -1 PRF reporter mCherry-FSE-GFP(-1) (assay: percent effect, decrease of GFP/mCherry ratio (-1 PRF reporter) relative to controls; higher = stronger frameshift inhibition). Settings: 10 µM; 24 h; HEK293T.
For `CC(C)=CCN1CC[C@@]2(C)c3cc(O)ccc3C[C@@H]1[C@@H]2C` [Fortral], the percent effect was 0.499%. Work on `CC(=O)[C@@]1(O)CC[C@H]2[C@@H]3CCC4=CC(=O)CC[C@]4(C)[C@@]3(F)[C@@H](O)C[C@@]21C` [flugestone] yielded a percent effect of 1.27%. `CNC(=O)Oc1ccc2c(c1)[C@]1(C)CCN(C)[C@@H]1N2C` [Physostigmine sulfate] showed a percent effect of 2.09%. Work on `Oc1ccc(Cl)cc1` yielded a percent effect of -2.55%. In the case of `C[C@]12CC[C@H]3[C@@H](CCC4=C(Cl)C(=O)CC[C@@]43C)[C@@H]1CC[C@@H]2O` [clostebol], the percent effect is reported as -5.3%. `CC(C)=CC1C(C(=O)OCN2C(=O)C3=C(CCCC3)C2=O)C1(C)C` (stereo not drawn) [tetramethrin] gave a percent effect of 2.43%. In the case of `O=C1NCN(c2ccccc2)C12CCN(CCCOc1ccc(F)cc1)CC2` [spiramide], the percent effect is reported as -2.76%. `COc1ccc2c3c1O[C@H]1C(=O)CC[C@@]4(O)[C@@H](C2)N(C)CC[C@]314` [oxycodone] showed a percent effect of 1.34%. Work on `C=CC[C@]1(O)CC[C@H]2[C@@H]3CCC4=CC(=O)CCC4=C3C=C[C@@]21C` yielded a percent effect of 1.31%. With `CCC1(CC)C(=O)NC(=O)N(c2ccccc2)C1=O` [phetharbital] the percent effect was -5.73%. `Cc1ccc(/N=C/N(C)/C=N/c2ccc(C)cc2C)c(C)c1` [Amitraz] showed a percent effect of -3.03%. With `C[C@H]1CCC[C@@H](O)CCCCCc2cc(O)cc(O)c2C(=O)O1` [taleranol] the percent effect was 0.0872%. Work on `O=C(O)CCCO` yielded a percent effect of -0.551%. `C[C@]12O[C@H](C[C@]1(O)CO)n1c3ccccc3c3c4c(c5c6ccccc6n2c5c31)CNC4=O` [lestaurtinib] showed a percent effect of -11.7%. `CCc1ccc(C2CCNCC2)cc1` [enefexine] was tested, and the percent effect was -8.54%. Work on `CN1[C@@H]2C[C@@H](OC(=O)[C@H](CO)c3ccccc3)C[C@H]1[C@@H]1O[C@@H]12` [Scopolamine] yielded a percent effect of 7.62%. `COc1ccc2c3c1O[C@H]1[C@@H](O)C=C[C@H]4[C@@H](C2)NCC[C@@]341` was tested, and the percent effect was -0.643%. Work on `C[C@@H]1O[C@@H](O[C@@H]2C=C3CC[C@@H]4[C@H](CC[C@]5(C)[C@@H](c6ccc(=O)oc6)CC[C@]45O)[C@@]3(C)CC2)[C@H](O)[C@H](O)[C@H]1O` [proscillaridin] yielded a percent effect of -14.7%. Work on `C[C@]12C=CC(=O)C=C1CC[C@@H]1[C@@H]2CC[C@@]2(C)[C@H]1CC[C@]2(C)O` [metandienone] yielded a percent effect of -4.23%. With `Cc1cccc(C(C)c2c[nH]cn2)c1C` (stereo not drawn) [medetomidine] the percent effect was 0.129%. With `C[C@]12N[C@H](Cc3ccccc31)c1ccccc12` [dizocilpine] the percent effect was -12%. `FC(F)(F)c1cccc(C2=CCN(CCc3ccc4ccccc4c3)CC2)c1` [xaliproden] was tested, and the percent effect was -7.9%. For `CCCCCCCCCCCCCCCC[n+]1ccccc1` [cetylpyridinium chloride], the percent effect was 0.627%.
